From US7022818 (Janssen / Centocor, dated 2006)
Results are given in words; binding and its absence hold for the method and conditions named. Some results given as binding are weak or reduced against the parent protein; the word gives no strength. Sequences can lack the tags named with a protein.

Target: T1, NH2-terminally 6His-tagged recombinant rat persephin (rat) (UniProt O70301)
T1 sequence: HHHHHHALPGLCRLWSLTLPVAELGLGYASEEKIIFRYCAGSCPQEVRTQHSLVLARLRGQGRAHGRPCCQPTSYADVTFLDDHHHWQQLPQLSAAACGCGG
Test: SPR (BIACORE 3000), PSP immobilised

B1: rat GFRα-4 variant A-IgGFc fusion protein (Fc fusion)
chain: ASSTEGNRCVEAAEACTADEQCQQLRSEYVAQCLGRAGWRGPGSCVRSRCRRALRRFFARGPPALTHALLFCGCEGPACAERRRQTFAPACAFSGPQLAPPSCLKPLDRCERSRRCRPRLFAFQASCAPAPGSRDGCPEEGGPRCLRAYAGLVGTVVTPNYLDNVSARVAPWCGCEASGNRREECEAFRKLFTRNPCLDGAIQAFDSSQPSVLQDQWNPYQNAG
notes: also called rat GFRα-4-IgGFc; rat GFRα4-IgGFc; not shown: The 243-residue COOH-terminal human IgG1-Fc fusion domain from the vector Signal pIg plus (R&D Systems)
binding: binds
